Test results published in patent publication US20040176568A1 (GENERAL HOSPITAL, published 2004).
These are yes or no findings as the source states them, for the method shown. Some results given as binding are weak or reduced against the parent protein; the word gives no strength.

T1: human PTH-1 receptor (human, UniProt Q03431 27-593)
T1 sequence (looked up): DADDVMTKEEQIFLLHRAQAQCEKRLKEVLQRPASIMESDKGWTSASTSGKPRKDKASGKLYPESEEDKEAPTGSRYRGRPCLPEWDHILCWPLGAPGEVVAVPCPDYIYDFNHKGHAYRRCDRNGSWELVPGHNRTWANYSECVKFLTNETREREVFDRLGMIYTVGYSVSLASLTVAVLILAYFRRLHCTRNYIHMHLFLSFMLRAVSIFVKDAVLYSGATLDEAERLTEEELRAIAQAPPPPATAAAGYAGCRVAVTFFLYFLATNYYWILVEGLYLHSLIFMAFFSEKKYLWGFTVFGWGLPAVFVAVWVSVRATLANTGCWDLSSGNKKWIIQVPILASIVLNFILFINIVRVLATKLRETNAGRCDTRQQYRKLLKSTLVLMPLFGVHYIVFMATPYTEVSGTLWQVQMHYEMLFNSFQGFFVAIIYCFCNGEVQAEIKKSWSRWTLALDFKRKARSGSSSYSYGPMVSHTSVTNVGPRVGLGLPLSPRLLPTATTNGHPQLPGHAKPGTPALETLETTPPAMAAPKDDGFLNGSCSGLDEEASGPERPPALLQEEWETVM


Target: T1, human PTH-1 receptor
Experiment: radioligand competition, HKRK B7 cells (human PTH-1 receptor)
From the text: Cell layers were washed three times before solubilization for determination of cell-associated radioactivity.

Row | binding | Binder
1 | no binding (tested: 1000 nM) | SVSEIQLMHNLGKHLNSMERVEWLRKK (C-terminal amide) [hPTH-(1-27)]
2 | no binding (tested: 1000 nM) | SVSEIQLMHNLGKHLNSMERVEWL (C-terminal amide) [hPTH-(1-24)]
3 | no binding (tested: 1000 nM) | SVSEIQLMHNLGKHLNSMERVEWLR (C-terminal amide) [hPTH-(1-25)]
4 | binds | AVSEIQLMHNLGKHLNSMERVEWLRKKLQDVHNY (chain 1: C-terminal amide) [[Ala^1]hPTH-(1-34)]
5 | no binding (tested: 1000 nM) | SVSEIQLMHNLGKHLNSMERVEWLRK (C-terminal amide) [hPTH-(1-26)]
